Experimental data published in patent US20160129044A1, “USE OF MESOTHELIAL CELLS IN TISSUE BIOENGINEERING AND ARTIFICIAL TISSUES” (FUNDACION PÚBLICA ANDALUZA PROGRESO Y SALUD, priority 2013, published 2016).
At least one structure is not confirmed: it was looked up by name or label, or the drawing left a doubt.

Tested on: adipose tissue mesothelial cells (ATMCs)
Experiment: Epithelial-to-mesenchymal transition (EMT) of cultured adipose tissue mesothelial cells: morphology, α-SMA/F-actin immunofluorescence, Western blot
Format: cell-based, mouse
Conditions: MRPM+10 μm RU-486; 5 days culture
Experimental: A total number of 3.5×10^5 ATMCs was seeded in each well of a 6 wells culture dishes (140685, Nunclon™ Δ Surface) into 1.5 ml of a culture media that we termed MRPM (Mesothelial Retaining Phenotype Media). […] Dev Dyn 236: 2973-2979) which are components of the fetal bovine serum (FBS). […] Concentration in viable ATMCs was assessed with a Neubaeur haemocytometer by using the trypan blue exclusion test and was adjusted to a final concentration of 1.6×10^6 cells/ml. ATMCs were then seeded on top of the decellularized basal membrane of Anterior Lens Capsules (HALCs), Aliquots of freshly isolated ATMCs were also cultured in similar conditions (48 hours in MRPM) into hydrophilic μ-Dish (45079, Ibidi GmbH, Germany) to characterize their immunophenotype by immunofluorescence against β-catenin and ZO-1 (FIG. 1). The mesothelial phenotype of ATMCs cultured for 48 hours in MRPM into hydrophilic p-Dish as well as mesothelialized HALC cultures was analyzed with immunofluorescence. ATMCs were fixed in PBS containing 4% PFA during 20 minutes at 4° C. […] Primary and conjugated antibodies used in this study are described in Table 1 (see below). […] Fluorescence images were captured with an inverted fluorescence microscope Olympus IX71 as described above. Quantification of α-SMA immunofluorescence expression was performed with the use of the Meta Imaging Software MetaMorph Offline version 7.5.1.0 (MDS Analytical technologies, USA). For each immunofluorescence image, were calculated the average values of specific Hoechst 33342 and Alexa 488 nm fluorescence emitted by the cells. Specific fluorescence was obtained after eliminating the average values of background fluorescence emitted by 3 areas lacking cells. Hoechst 33342 and Alexa 488 nm fluorescence were further divided between each other to obtain a relative index of marker expression (arbitrary units). […] Blots were incubated overnight with primary antibodies against α-SMA ( 1/1000) and β-actin ( 1/500) and immunoreactive bands were detected by horseradish peroxidise-conjugated secondary antibodies followed by ECL Plus detection system (Amersham).

SMILES: CC#C[C@]1(O)CC[C@H]2[C@@H]3CCC4=CC(=O)CCC4=C3[C@@H](c3ccc(N(C)C)cc3)C[C@@]21C [RU-486]
- Effect on hydrocortisone-inhibited EMT of ATMCs: counteracts hydrocortisone-inhibited EMT
- Morphology of ATMCs cultures (phase contrast): mixed epithelial and fibrobiastoid morphologies
- α-SMA immunofluorescence staining of ATMCs: presence of large fibrobiastoid α-SMA positive cells
